In article PMC3366916, “Characterization of a Conserved Interaction between DNA Glycosylase and ParA in Mycobacterium smegmatis and M. tuberculosis” (PLoS ONE, 2012):
No constants are given. Whether binding was seen depends on the method and setting. Some binding calls cover weakened binding; strength is not graded here. Sequences can lack the tags named with a protein.

Biological target: MtParA (Rv3918c), bacterial two-hybrid fusion (M. tuberculosis) (UniProt A5U9P6)
Experiment: two-hybrid

B1: MtTAG (Rv1210), bacterial two-hybrid fusion (enzyme, UniProt L7N613 1-204)
chain: MSGDGLVRCPWAEVRPGPDAQLYRDYHDNEWGRPLYGRVALFERMSLEAFQSGLSWLIILRKRENFRRAFSGFDIDKIARYTDTDVRRLLADDGIVRNRAKIEATIANARAAADLGSSEDLSELLWSFAPPPRPRPVDGSEIPSVSTESKAMSRELKRRGFRFVGPTTAYALMQATGMVDDHIQACWVPTERPFDQPGCPMAAR
Which binding does the source give for B1 here?
Its binding is “binds”.
